Laboratory results published in publication doi:10.1101/2023.12.20.572533.
Positions count from the first letter of the chain named. Results are given in words; binding and its absence hold for the method and conditions named. Some results given as binding are weak or reduced against the parent protein; the word gives no strength. For some of these results: Sequences can lack the tags named with a protein.

What was measured:
[1] = biological target: T1, GST-tagged MUT-16^1-383 (C. elegans) (UniProt O62011); assay: pull-down
T1 sequence: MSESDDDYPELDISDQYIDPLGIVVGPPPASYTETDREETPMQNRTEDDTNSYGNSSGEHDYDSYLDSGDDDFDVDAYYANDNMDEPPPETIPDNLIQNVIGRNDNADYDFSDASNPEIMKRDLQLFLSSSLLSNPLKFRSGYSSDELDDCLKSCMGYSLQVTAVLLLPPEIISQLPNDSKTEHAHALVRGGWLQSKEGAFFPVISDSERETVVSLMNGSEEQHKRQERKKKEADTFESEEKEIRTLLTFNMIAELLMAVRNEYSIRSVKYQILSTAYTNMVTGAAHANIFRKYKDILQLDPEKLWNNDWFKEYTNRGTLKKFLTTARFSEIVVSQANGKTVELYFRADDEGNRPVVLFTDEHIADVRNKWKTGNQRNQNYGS

[2] = biological target: T2, GST-tagged MUT-16^1-584 (C. elegans) (UniProt O62011); assay: pull-down
T2 sequence: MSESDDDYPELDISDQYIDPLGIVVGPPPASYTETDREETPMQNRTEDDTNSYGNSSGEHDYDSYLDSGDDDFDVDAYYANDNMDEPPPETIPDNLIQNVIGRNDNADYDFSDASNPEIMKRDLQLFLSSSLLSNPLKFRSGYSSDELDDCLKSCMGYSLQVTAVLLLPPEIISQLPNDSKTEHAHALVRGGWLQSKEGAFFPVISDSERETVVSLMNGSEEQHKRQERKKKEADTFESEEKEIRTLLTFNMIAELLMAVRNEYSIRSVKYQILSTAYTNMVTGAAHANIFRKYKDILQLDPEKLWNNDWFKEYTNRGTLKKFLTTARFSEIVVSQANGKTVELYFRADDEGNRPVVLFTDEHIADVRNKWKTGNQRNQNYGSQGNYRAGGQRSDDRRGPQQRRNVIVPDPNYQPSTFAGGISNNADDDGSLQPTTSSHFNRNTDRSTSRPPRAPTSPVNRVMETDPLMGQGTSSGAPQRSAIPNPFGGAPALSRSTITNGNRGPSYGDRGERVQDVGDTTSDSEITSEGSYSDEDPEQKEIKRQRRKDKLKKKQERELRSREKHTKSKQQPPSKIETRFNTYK

[3] = biological target: T3, GST-tagged MUT-16^584-724 (C. elegans) (UniProt O62011); assay: pull-down
T3 sequence: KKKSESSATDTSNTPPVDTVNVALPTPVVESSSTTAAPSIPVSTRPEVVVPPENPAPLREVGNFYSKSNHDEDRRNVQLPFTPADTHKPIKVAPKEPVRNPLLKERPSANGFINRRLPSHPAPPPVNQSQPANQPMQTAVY

[4] = biological target: T4, MUT-7^FL(D435A), purified in complex with MUT-8^CTD (C. elegans) (UniProt P34607); assay: co-purification
T4 sequence: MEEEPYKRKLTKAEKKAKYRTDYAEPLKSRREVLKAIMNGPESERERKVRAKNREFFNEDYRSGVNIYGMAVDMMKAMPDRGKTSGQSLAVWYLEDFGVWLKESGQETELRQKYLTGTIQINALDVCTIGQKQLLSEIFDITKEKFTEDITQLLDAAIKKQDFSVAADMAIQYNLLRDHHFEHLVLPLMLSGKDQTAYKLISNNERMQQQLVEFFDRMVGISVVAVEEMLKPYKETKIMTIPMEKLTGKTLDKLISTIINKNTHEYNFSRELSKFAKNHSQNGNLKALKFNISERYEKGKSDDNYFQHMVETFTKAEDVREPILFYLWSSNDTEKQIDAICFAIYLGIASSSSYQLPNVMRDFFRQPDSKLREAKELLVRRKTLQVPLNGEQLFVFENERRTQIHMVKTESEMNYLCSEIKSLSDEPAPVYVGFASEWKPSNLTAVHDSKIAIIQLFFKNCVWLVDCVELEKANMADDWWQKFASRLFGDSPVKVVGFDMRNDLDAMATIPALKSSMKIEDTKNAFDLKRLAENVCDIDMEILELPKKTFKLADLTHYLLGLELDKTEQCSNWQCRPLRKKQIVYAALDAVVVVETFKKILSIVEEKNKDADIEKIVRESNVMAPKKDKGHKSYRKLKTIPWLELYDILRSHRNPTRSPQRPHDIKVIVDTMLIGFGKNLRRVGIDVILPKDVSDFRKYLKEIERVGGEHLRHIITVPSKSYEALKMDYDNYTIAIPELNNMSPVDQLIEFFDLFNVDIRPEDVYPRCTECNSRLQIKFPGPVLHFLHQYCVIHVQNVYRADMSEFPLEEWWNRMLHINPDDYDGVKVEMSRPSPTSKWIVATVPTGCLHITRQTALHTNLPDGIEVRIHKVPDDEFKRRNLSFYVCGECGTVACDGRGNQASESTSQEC

[5] = biological target: T5, MUT-7^FL, purified (C. elegans) (UniProt P34607); assay: co-purification
T5 sequence: T4 sequence with A435D

[6] = biological target: T6, MUT-7^CTD (633-910), purified in complex with MUT-8^CTD (C. elegans) (UniProt P34607); assay: SEC-MALS
T6 sequence: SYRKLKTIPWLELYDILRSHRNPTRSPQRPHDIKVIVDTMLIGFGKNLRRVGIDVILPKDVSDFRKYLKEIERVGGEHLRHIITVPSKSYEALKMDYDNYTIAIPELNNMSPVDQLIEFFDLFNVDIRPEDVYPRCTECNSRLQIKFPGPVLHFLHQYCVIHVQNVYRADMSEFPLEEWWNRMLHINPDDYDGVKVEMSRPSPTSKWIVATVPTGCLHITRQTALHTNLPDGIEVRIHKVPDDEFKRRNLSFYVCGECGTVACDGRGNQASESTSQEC

[7] = biological target: T6, MUT-7^CTD (633-910), purified in complex with MUT-8^CTD (C. elegans); assay: cross-linking

B1: MUT-7^FL/MUT-8^FL complex (complex, UniProt P34607 1-910; Q19672 1-578)
chain 1: T4 sequence with A435D
chain 2: MHNGYHSYFPPNHYYAQSQPSSSYNPQPQIQQPQTQIYGLVVGYNKYGNRNYLFYTKNIDGFVEISGNIQSLQIGRWLKLTVCQNFVGQYVLDSSNSCGYENWDVLPNHRNSSARFFPKYEANDEGEILITARFDVIVDRKNNLYDFTSYDISYDHIIDDFSLIKSSCQHYDGRSFIVEAQASLAGWVALSVHEDPQKLHTCDAVSRNGYQSLPNPVVDSDVQYLHDTRLLDIMTGNGYVQTPETDVQDQQSSQHQEDVHSQMNSQTSDSYNSSRVVSENREIPPETFRSQSIELNQVDSSLSQTTISSRAAPVIDSNQLSDEDEIDDEDTYGTRGTSNIPMRPFIKDLAPTMLQLLRQDKTDSEKPQSALCTVVQKIDGFAILYTAKRDVINVLLQERSCEGLERSPQLGDVAFFDILPRRIETKDRLIFKIPYTHIAVKKKPDTPDSLLKIDCFKNSVRCFGGVLEMKVKIALSKPELVVEQYHDNTEMNSDHHFYYLKATNGVLVTIPKERLLNHLNSKLSADFDLIAWVVHRKPIGNVSLHIGKGGEAYQQFTNGDIRELPPLSSNQYFMNVRK
B1 was tested, and the binding [1] was “no binding (tested: 5 µM)”, the binding [2] was “no binding (tested: 5 µM)” and the binding [3] was “binds”.

B2: MUT-8^CTD (322-578), purified in complex with MUT-7 constructs (domain or fragment, UniProt Q19672 322-578)
chain: DEDEIDDEDTYGTRGTSNIPMRPFIKDLAPTMLQLLRQDKTDSEKPQSALCTVVQKIDGFAILYTAKRDVINVLLQERSCEGLERSPQLGDVAFFDILPRRIETKDRLIFKIPYTHIAVKKKPDTPDSLLKIDCFKNSVRCFGGVLEMKVKIALSKPELVVEQYHDNTEMNSDHHFYYLKATNGVLVTIPKERLLNHLNSKLSADFDLIAWVVHRKPIGNVSLHIGKGGEAYQQFTNGDIRELPPLSSNQYFMNVRK
For B2, the binding [4] was “binds”, the binding [5] was “binds” and the binding [6] was “binds”. For the same binder, the binding [7] was “binds”.
